Key:
[1] = Daily i.v. ZAG in mature male Wistar rats for 10 days (body weight, composition, plasma metabolites); assay type: in vivo; details: during the 10 day study
Description: Animals Rais Mature male Wistar rats (one year old from our own colony) weighing 540 ±82.5 g were housed individually and treated once daily i. v., with either ZAG in PBS (100 μl) (50 μg per 100 g body weight), or with PBS (100 μl) as a control. Both food and water intake and body weight were measured daily. Animals were given free access to food (Special Diet Services, Essex, UK) and water ad libitum. The animal experiment was carried out under the welfare conditions imposed by the British Home Office. After 10 days treatment the animals were terminated and the body composition determined. Animals were heated to 80-90° C. for 7 days until constant weight was achieved. The water content was then determined from the difference between the wet and dry weight. Lipids were extracted from the dry carcass using a sequence of chloroform:methanol (1:1), ethanolla.cetone (1:1) and diethyl ether (120 ml of each) as described by Lundholm et al (14). […] The non-fat carcass mass was calculated as the difference between the initial weight of the carcass and the weight of water and fat.
Serum Metabolite Determinations—Non-esterified fatty acids (NEFA) were determined using a Wako-ASC-ACOD kit (Wako Chemical GmbH, Neuss, Germany). Triglycerides were determined using a Triglyceride kit (Sigma Chemical Co., Poole, United Kingdom) and 3-hydroxybutyrate by a quantitative enzymatic determination kit (Sigma). […]

[2] = ZAG i.v. administration to ob/ob mice, 5 day study (body weight, temperature, plasma metabolites); assay type: in vivo; details: over the 5 day experiment
Description: Animals—Mice—Homozygous obese (ob/ob) mice from the colony maintained at Aston University were used in the present study. The origin and characteristics of Aston ob/ob mice have been previously described. Male mice (20-21 weeks old, weight 90-100 g) were grouped into three per cage in an air conditioned room at 22 ±2° C. with a 12 h-light:12 h-dark cycle and fed a rat and mouse breeding diet (Special Diet Services, Witham, UK) and tap water ad libitum. They were administered ZAG (35 μg) in PBS (100 μl) b.d. by i.v. administration and body weight and food and water intake were monitored daily. Control mice received PBS alone. Body temperature was measured daily by the use of a rectal thermometer (RS Components, Northants, UK). […]
Serum Metabolite Determinations—Non-esterified fatty acids (NEFA) were determined using a Wako-ASC-ACOD kit (Wako Chemical GmbH, Neuss, Germany). Triglycerides were determined using a Triglyceride kit (Sigma Chemical Co., Poole, United Kingdom) and 3-hydroxybutyrate by a quantitative enzymatic determination kit (Sigma). Glucose was measured using a glucose analyser (Beckman, Irvine, Calif.) and glycerol was determined enzymatically using the method of Wieland as described in “Methods of Enzymatic Analysis” (Ed, Bergmeyer, H. U.) Vol. 3, pp1404-1409, published by Academic Press, London (1974).

B1: Zinc-α2-glycoprotein (protein, listed as Homo sapiens)
chain: QENQDGRYSLTYIYTGLSKHVEDVPAFQALGSLNDLQFFRYNSKDRKSQPMGLWRQVEGMEDWKEDSQLQKAREDMETLKDIVEYYNDSNGSHVLQGRFGCEIENNRSSGAFWKYYYDGKDYIEFNKEIPAWVPFDPAAQITKQKWEAEPVYVQRAKAYLEEECPATLRKYLKYSKNILDRQDPPSVVVTSHQAPGEKKKLKCLAYDFYPGKIDVHWTRAGQVQEPELRGDVLHNGNGTYQSWVVVAVPPQDTAPYSCHVQHSSLAQPLVVPWEAS
notes: recombinant human Zinc-α2-glycoprotein, lipid mobilizing factor, expressed in HEK293F cells
B1 gave a food intake [1] of 102 ± 32 g, a water intake [1] of 135 ± 35 mL and a food intake [2] of 30 ± 2.5 g. The water intake [2] was 135 ± 3.2 mL.
